The campaign covered roughly 1,400 compounds. Fewer than 10 were called active. Roughly 8% stayed inconclusive and do not appear here. The call rests on the fitted dose curve; in most records, active means well fitted curve in the direction sought with a large enough effect; inconclusive means small, poorly fitted or top-dose-only effect, or another doubt; inactive means no such curve, though single readings can be large or run the other way. The list shows a part of the results.
target: Transient receptor potential cation channel subfamily V member 1 (Homo sapiens) (UniProt Q8NER1); assay: qHTS Assay for Compounds that Act as Potentiators of the Vanilloid Receptor 1: Hit Validation; conditions: TRPV1-expressing cells, Fluo-8 calcium influx, capsaicin EC20; series mostly up to 42.1 µM; activity change, positive = potentiation: at the top concentration; on activity change, positive = potentiation: % of control where 0% means no effect
In short: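 Calcium influx via Fluo-8 fluorescence (480/520 nm) on FDSS: 10 s baseline, 3 min compound read, 2 min read after EC20 capsaicin. TRPV1-expressing cells plated 2000/well, grown overnight at 35.5 °C.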
Potency means the concentration at half of the fitted maximal effect.

Amino acid sequences for entries named in this document (tags omitted).
UniProt Q8NER1, whole entry, looked up: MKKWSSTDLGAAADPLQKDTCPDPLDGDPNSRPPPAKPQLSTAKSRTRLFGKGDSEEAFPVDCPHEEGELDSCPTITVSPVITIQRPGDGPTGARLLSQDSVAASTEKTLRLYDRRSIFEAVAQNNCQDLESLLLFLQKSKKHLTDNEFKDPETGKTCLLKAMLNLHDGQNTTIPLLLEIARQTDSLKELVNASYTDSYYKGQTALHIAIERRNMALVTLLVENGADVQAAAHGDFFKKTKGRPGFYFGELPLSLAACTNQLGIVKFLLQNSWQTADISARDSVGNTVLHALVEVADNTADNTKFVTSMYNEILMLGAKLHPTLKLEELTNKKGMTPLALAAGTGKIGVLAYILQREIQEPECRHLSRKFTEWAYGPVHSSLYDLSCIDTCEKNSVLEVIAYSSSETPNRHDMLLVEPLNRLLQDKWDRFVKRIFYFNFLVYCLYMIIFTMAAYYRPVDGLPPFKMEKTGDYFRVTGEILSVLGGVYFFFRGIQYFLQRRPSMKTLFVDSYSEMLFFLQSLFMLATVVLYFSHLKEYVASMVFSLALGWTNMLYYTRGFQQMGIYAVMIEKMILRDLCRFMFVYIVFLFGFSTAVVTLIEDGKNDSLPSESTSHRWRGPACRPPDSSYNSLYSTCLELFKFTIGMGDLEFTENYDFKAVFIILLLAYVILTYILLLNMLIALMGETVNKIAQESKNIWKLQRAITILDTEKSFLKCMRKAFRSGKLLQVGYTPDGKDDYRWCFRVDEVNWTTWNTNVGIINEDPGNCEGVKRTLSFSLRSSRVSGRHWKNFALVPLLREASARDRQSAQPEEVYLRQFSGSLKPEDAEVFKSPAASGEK

SMILES	activity change, positive = potentiation	Potency
CN1CCC(=NNC(=O)CN(c2cccc(Br)c2)S(C)(=O)=O)CC1	inactive: -5.86%	–
Cc1c(=O)n(OCc2ccccc2F)c2ccccc2[n+]1[O-]	inactive: 0.445%	–
Cc1sc2ncnc(N)c2c1C	inactive: -6.4%	–
Cc1cc(C)cc(Oc2nc3ccccn3c(=O)c2/C=C(\C#N)C(=O)NC2CCS(=O)(=O)C2)c1 (stereo not drawn)	inactive: -10.1%	–
Cc1cnc(NC(=O)c2cc3c(s2)CCCC3)s1	inactive: -38.8%	–
CC(c1ccccc1)C1CC(=O)N(c2ccccc2)C1=O (stereo not drawn)	inactive: -7.44%	–
CCOc1ncccc1C(=O)NCCc1ccc(Cl)cc1	inactive: -18.1%	–
COC(=O)c1cccnc1-n1c(=O)c2cccnc2n(CC(=O)Nc2ccc(Br)cc2)c1=O	inactive: -4.44%	–
CC(C)NC(=S)Nc1ccc2nc3n(c(=O)c2c1)CCCCC3	inactive: 6.34%	–
CCOC(=O)c1c(NC(=O)COC(=O)c2ccccn2)sc(C(=O)N(C)C)c1C	inactive: 8.21%	–
CCCc1nnc(NC(=O)CC(C)c2ccccc2)s1 (stereo not drawn)	inactive: -4.64%	–
CN1CCN(S(=O)(=O)c2ccc(NC(=O)c3ccc(F)cc3)cc2)CC1	inactive: -2.3%	–
COc1cccc(OC)c1C(=O)NCCOc1cc(C)cc(C)c1	inactive: 3.41%	–
Cc1cc(C)nc(SC(C)C(=O)O)n1 (stereo not drawn)	inactive: -3.04%	–
O=C(CCCCCn1c(=S)[nH]c2cc3c(cc2c1=O)OCO3)N1CCN(c2ccc(F)cc2)CC1	inactive: -8.32%	–
Cc1ccc(-c2c(C(=O)N/N=C/c3ccoc3)nnn2-c2nonc2N)cc1	inactive: -32.2%	–
CCOc1ccc(Nc2nc(Cc3nnc(SCC(N)=O)o3)cs2)cc1	inactive: 5.63%	–
CN(CCc1ccccc1)C1CCCN(S(=O)(=O)CC(F)(F)F)C1 (stereo not drawn)	inactive: -8.12%	–
O=C(COc1ccccc1)NCCS(=O)(=O)N1CCN(c2ccccc2)CC1	inactive: -8.44%	–
CCOc1ccccc1C(=O)Nc1ccc(-n2nncc2C(C)(C)C)cc1	inactive: -6.71%	–
COc1cccc(/C=C/C(=O)OCC(=O)Nc2cc(C(F)(F)F)ccc2Cl)c1	inactive: 6.89%	–
CCCc1cc(=O)n2[nH]cc(-c3ccc(Cl)cc3)c2n1	inactive: 4.52%	–
CN(/C(=N\S(=O)(=O)c1ccccc1)c1ccccc1)c1ccc(O)cc1	inactive: -5.44%	–
COc1cccc(OC)c1C(=O)Nc1ccc(S(=O)(=O)Nc2ncccn2)cc1	inactive: -1.46%	–
Cc1cc(/C=C2\Cc3ccccc3C2=O)c(C)n1-c1ccccc1	inactive: -38.9%	–
O=C(Nc1ncc([N+](=O)[O-])s1)C1CCN(S(=O)(=O)c2cnc[nH]2)CC1	inactive: -3.47%	–

Retrieved by compound from the entries so far (six):
SMILES	activity change, positive = potentiation	Potency
O=C(Nc1ncc([N+](=O)[O-])s1)C1CCN(S(=O)(=O)c2cnc[nH]2)CC1	inactive: -3.47%	–
CCCc1nnc(NC(=O)CC(C)c2ccccc2)s1 (stereo not drawn)	inactive: -4.64%	–
Cc1cc(C)cc(Oc2nc3ccccn3c(=O)c2/C=C(\C#N)C(=O)NC2CCS(=O)(=O)C2)c1 (stereo not drawn)	inactive: -10.1%	–
CN(CCc1ccccc1)C1CCCN(S(=O)(=O)CC(F)(F)F)C1 (stereo not drawn)	inactive: -8.12%	–
CN1CCN(S(=O)(=O)c2ccc(NC(=O)c3ccc(F)cc3)cc2)CC1	inactive: -2.3%	–
CCOc1ccccc1C(=O)Nc1ccc(-n2nncc2C(C)(C)C)cc1	inactive: -6.71%	–

Later entries:

SMILES	activity change, positive = potentiation	Potency
CC(C)(C)NC(=O)Cn1nnc(-c2ccccc2NC(=O)c2cnccn2)n1	inactive: 6.2%	–
O=C(Nc1ccc(Cl)c(Cl)c1)C1=Cc2ccccc2OC1	inactive: -38.5%	–
O=S(=O)(c1cc(Cl)ccc1Cl)N1CCN2CCCC2C1 (stereo not drawn)	inactive: -9.92%	–
Cc1ccc(N2C(=O)C3N=NN(CC(=O)N4N=C(c5ccccc5)CC4c4ccccc4)C3C2=O)cc1 (stereo not drawn)	inactive: -1.79%	–
Cc1[nH]c2ccc(-c3nnc(SCC(=O)c4ccc(F)cc4)o3)cc2c1C	inactive: 0.257%	–
COc1ccc(-c2cc(C)no2)cc1S(=O)(=O)NCC(C)c1ccccc1 (stereo not drawn)	inactive: 0.097%	–
COc1ccc(OC)c(-c2[nH]nc3c2C(c2ccco2)C(C#N)=C(N)O3)c1 (stereo not drawn)	inactive: 0.39%	–
CCN1/C(=C(\O)c2ccccc2)C(=O)c2ccccc2S1(=O)=O	inactive: -2.36%	–
C=C(C)C(=O)Nc1cccc(C2=NOC3(C2)C[C@H](C(N)=O)N(C(=O)c2ccccc2C(=O)c2ccccc2)C3)c1 (stereo partly drawn)	inactive: -6.85%	–
Cc1c(Cl)ccc2sc(NC(=O)c3ccco3)nc12	inactive: -36%	–
O=C(NCc1n[nH]c(=S)n1-c1cccc(Cl)c1)c1ccc(S(=O)(=O)N2CCCCC2)cc1	inactive: 3.77%	–
CCC(C)NC(=O)C1CCC(=O)N1CCc1ccccc1 (stereo not drawn)	inactive: 1.19%	–
Cc1cc(C)n2nc(-c3ccccc3)c(-c3ccccc3)c2n1	inactive: -1.83%	–
c1ccc(Cn2nnc3ccccc32)cc1	inactive: -0.332%	–
Cc1cc(N2CCCC2)nc2ccc(NC(=S)NC(C)C)cc12	inactive: 5.65%	–
NC(=O)C1CCN(c2nnnn2-c2ccccc2)CC1	inactive: 2.02%	–
CN1CCN(C(CNS(=O)(=O)c2ccc([N+](=O)[O-])cc2)c2ccc(F)cc2)CC1 (stereo not drawn)	inactive: -2.94%	–
CC(=O)Nc1cccc(Nc2nc(-c3ccccc3F)nc3ccccc23)c1	inactive: -39.1%	–
O=C(Nc1cccc([N+](=O)[O-])c1)N1CCN(c2ccccc2)CC1	inactive: -38.2%	–
CSc1ccc(/C=N/N2CCN(C)CC2)cc1	inactive: 0.176%	–
COc1ccccc1-c1cc2ccccc2[nH]1	inactive: -5.83%	–
CC(=O)c1cccc(NC(=O)c2ccc3c(c2)CCCC3)c1	inactive: -35.4%	–
COc1cccc(CNC(=O)CCn2ccc3cc(S(=O)(=O)N4CCCC4)ccc32)c1	inactive: -36.9%	–
Cc1ccc(CN2C(=O)CCC2C(=O)NCCCN2CCCC(C)C2)cc1 (stereo not drawn)	inactive: -5.07%	–
Cc1ccc(/C=N/NC(=O)Cc2cccs2)o1	inactive: -3.68%	–
CC(C)(C)c1ccc(NC(=O)NCc2ccco2)cc1	inactive: -39%	–

SMILES	activity change, positive = potentiation	Potency
Cn1c(=O)c2c(-c3ccccc3F)c3c(nc2n(C)c1=O)-c1ccccc1C3O (stereo not drawn)	inactive: -24.5%	–
CCOc1c(C(=O)CC)cc2c(C)cc(=O)oc2c1C	inactive: -1.15%	–
Cc1cc(C)nc(SCC(=O)OCC(=O)Nc2ccccc2)n1	inactive: -4.38%	–
N#CC(C#N)=Cc1ccc(NC(=O)c2ccc(Br)cc2)cc1	inactive: -6.2%	–
Brc1ccccc1C1Nc2cccc3cccc(c23)N1	inactive: -10%	–
Cc1ccc(S(=O)(=O)Oc2ccccc2N2C(=O)C3C4CCC(C4)C3C2=O)cc1 (stereo not drawn)	inactive: 1.98%	–
CCOc1ccc(C(C)NC(=S)NCc2ccc(F)cc2)cc1 (stereo not drawn)	inactive: -32%	–
COc1ccc(NC(=O)CCCSc2nc(-c3ccco3)cc(C(F)(F)F)n2)cc1OC	inactive: -38.7%	–
COc1ccc(NC(=O)CSc2nn3c(=O)c(C)nnc3s2)cc1	inactive: -8.35%	–
CCOC(=O)CNC(=O)N1CCc2ccc(NC(=O)c3ccccc3Cl)cc2C1	inactive: -6.37%	–
Cn1nc(-c2ccccc2)c2cc([N+](=O)[O-])ccc21	inactive: -1.55%	–
Cc1cccc2c1-c1sc(C(=O)N3CCCCC3)cc1CO2	inactive: -36.2%	–
Cc1cc(NC(=O)c2cc(F)c(F)cc2Cl)no1	inactive: -10.7%	–
CC(C)(C)c1ccc(S(=O)(=O)N2CC(C(=O)O)Oc3ccc(Cl)cc32)cc1 (stereo not drawn)	inactive: -3.16%	–
COCCNC(=O)c1cc(-c2ccccc2)n(CC2CC(c3ccc(OC)cc3)=NO2)n1 (stereo not drawn)	inactive: -3.84%	–
Cc1ccc(/C=C2\CCC3=C2OC(N)=C(C#N)C3c2ccc(C)cc2)cc1 (stereo not drawn)	–	active: 8.05 µM
COc1ccccc1CC(=O)Nc1c[nH]c(=O)[nH]c1=O	inactive: -4.86%	–
COc1ccccc1Nc1nc(N)nc(-c2oc3ccccc3c2C)n1	inactive: -6.22%	–
CC1(C(=O)NCc2ccccc2)Oc2ccccc2NC1=O (stereo not drawn)	inactive: -9.01%	–
COc1ccccc1CNC(=O)CNCCc1ccc(OC)c(OC)c1	inactive: -0.663%	–
O=C(Nc1ccc(F)cc1)c1ccc2ncsc2c1	inactive: -36.9%	–
O=C(N/N=C/c1ccccc1)c1n[nH]c2c1CCCC2	inactive: -30.5%	–
COc1ccc(C(=O)c2sc(Nc3ccc(NC(C)=O)cc3)nc2C)cc1	inactive: 2.12%	–
O=C(NNC(=O)c1ccncc1)Nc1cccc(C(F)(F)F)c1	inactive: 5.3%	–
c1cnc2c(OCc3nc4ccccc4[nH]3)cccc2c1	inactive: -5.99%	–
CCC(C)Sc1ccc([C@H]2N[C@@](CC(C)C)(C(=O)OC)[C@H]3C(=O)N(CC)C(=O)[C@@H]23)cc1 (stereo partly drawn)	inactive: -37.3%	–

SMILES	activity change, positive = potentiation	Potency
CC(C)Oc1ccc(NC(=O)c2ccncc2)cc1	inactive: -33.9%	–
Cc1ccc(OCCNC(=O)Cc2ccc(F)cc2)cc1	inactive: -38.4%	–
Cc1ccc(/C=N/Nc2nc(N3CCCCC3)nc(N3CCCCC3)n2)o1	inactive: -38.5%	–
CC(C)(C)C(=O)CSc1ncnc2c1cnn2Cc1ccccc1	inactive: -37.9%	–
CCCCNC(=S)NCc1ccc2[nH]c3c(c2c1)CCCC3	inactive: -6.54%	–
Cn1nc(CC(=O)Nc2ccc3c(c2)OCCO3)c2ccccc2c1=O	inactive: 4.52%	–
COc1ccc(N/C=C/C(=O)c2ccc(OC)c(OC)c2)cc1	inactive: 19.2%	–
Cc1[nH]c2ccccc2c1C(c1ccncc1)N1CCC(C)CC1 (stereo not drawn)	inactive: -33.7%	–
O=C(CC1C(=O)NCCN1CCCc1ccccc1)NCCc1ccccc1F (stereo not drawn)	inactive: -5.54%	–
CCCCCCC1CCC(C(=O)N2CCOCC2)CC1 (stereo not drawn)	inactive: -38.8%	–
COC(=O)c1ccccc1NC(=O)CSc1nnc(-c2cccnc2)n1N	inactive: -9.37%	–
O=C(NCCCN1CCOCC1)C1Cc2c(ccc3ccccc23)O1 (stereo not drawn)	inactive: 23%	–
O=C(C1=C[C@@H](c2ccccc2)C[C@@H](OCc2ccc(CO)cc2)O1)N1CCCCCCC1	inactive: -38.9%	–
CCC1(CC)NC(=O)N(CC(=O)OCC(=O)NC(=O)c2ccccc2)C1=O	inactive: -8.83%	–
CCCCNc1c(-c2ccc(OC)c(SC3CCCCC3)c2)nc2cc(C)ccn12	inactive: -38.8%	–
CC(=O)Nc1cc(-c2ccccc2)ccc1O	inactive: -32.7%	–
COCCCNC(=O)c1cc2cc([N+](=O)[O-])cc(OC)c2oc1=O	inactive: -9.84%	–
O=C(CN1C(=O)/C(=C\c2ccco2)SC1=S)Nc1ccc(O)cc1C(=O)O	inactive: -0.62%	–
Nc1cccc(C(=O)OCC(=O)NC2CCCc3ccccc32)c1 (stereo not drawn)	inactive: -8.36%	–
Cc1ccc([N+](=O)[O-])cc1NC(=O)CNC1CCCCC1	inactive: -1.58%	–
O=C(Nc1cccc(S(=O)(=O)N2CCCCC2)c1)c1ccc2ncsc2c1	inactive: -30.7%	–
COCCNC(=O)c1cccc(OC2CCN(Cc3cccc(C(C)=O)c3)CC2)c1	inactive: -4.75%	–
CC1CN(c2nc3c(c(=O)n(Cc4ccc(Cl)cc4)c(=O)n3C)n2C)CC(C)O1 (stereo not drawn)	inactive: -38.7%	–
O=C(NCCN1CCOCC1)C(=O)NCC1OCCCN1S(=O)(=O)c1cc(F)ccc1F (stereo not drawn)	inactive: -6.72%	–
NS(=O)(=O)c1ccc(NC(=O)c2ccc3c(c2)CCCC3)cc1	inactive: -39.6%	–

Source: PubChem BioAssay AID623959 (National Center for Advancing Translational Sciences (NCATS), 2012)
